Experimental data: PMC4949229
No constants are given. Whether binding was seen depends on the method and setting. For some of these results: Binding seen in cells or lysates may run through a third protein. Some entries that bind do so weakly or less than the wild type. Sequences can lack the tags named with a protein.

T1: ABA-responsive element binding factor 3 (ABF3), full length, yeast two-hybrid fusion (Arabidopsis) (UniProt Q9M7Q3)
T1 sequence: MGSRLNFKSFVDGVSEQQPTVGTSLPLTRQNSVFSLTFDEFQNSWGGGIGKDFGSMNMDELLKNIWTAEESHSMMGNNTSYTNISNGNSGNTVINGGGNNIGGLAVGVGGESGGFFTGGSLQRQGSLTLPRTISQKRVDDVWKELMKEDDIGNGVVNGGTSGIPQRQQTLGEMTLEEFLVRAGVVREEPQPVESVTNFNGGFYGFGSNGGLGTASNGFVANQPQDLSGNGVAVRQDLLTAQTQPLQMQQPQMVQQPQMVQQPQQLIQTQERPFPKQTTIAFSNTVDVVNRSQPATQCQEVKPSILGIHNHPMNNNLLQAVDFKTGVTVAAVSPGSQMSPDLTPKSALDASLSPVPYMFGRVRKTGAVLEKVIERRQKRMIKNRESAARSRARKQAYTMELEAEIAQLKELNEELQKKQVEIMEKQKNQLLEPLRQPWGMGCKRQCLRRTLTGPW

T2: ABF3-EYFP^C (BiFC fusion) (Arabidopsis) (UniProt Q9M7Q3)
T2 sequence: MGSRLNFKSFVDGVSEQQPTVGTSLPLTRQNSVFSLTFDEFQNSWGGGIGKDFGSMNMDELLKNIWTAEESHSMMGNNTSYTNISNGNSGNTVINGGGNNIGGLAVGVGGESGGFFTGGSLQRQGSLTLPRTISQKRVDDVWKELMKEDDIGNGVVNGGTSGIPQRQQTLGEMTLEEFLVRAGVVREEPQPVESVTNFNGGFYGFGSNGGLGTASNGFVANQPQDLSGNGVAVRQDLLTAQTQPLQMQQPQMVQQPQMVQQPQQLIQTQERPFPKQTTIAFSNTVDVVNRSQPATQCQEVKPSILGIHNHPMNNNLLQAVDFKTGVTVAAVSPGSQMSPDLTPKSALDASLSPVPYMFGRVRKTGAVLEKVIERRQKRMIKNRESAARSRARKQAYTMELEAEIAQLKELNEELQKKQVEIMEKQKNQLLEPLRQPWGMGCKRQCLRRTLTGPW


Columns and labels:
[1] = molecular target: T1, ABA-responsive element binding factor 3 (ABF3), full length, yeast two-hybrid fusion (Arabidopsis); assay: two-hybrid; yeast; pGBKT7 and pGADT7 fusions; growth on SD/-Trp/-Leu or SD/-Trp/-Leu/-His/-Ade
[2] = molecular target: T2, ABF3-EYFP^C (BiFC fusion) (Arabidopsis); assay: split reporter; BiFC; ABF3-EYFP^C and NAC072-EYFP^N cotransformed into Arabidopsis mesophyll protoplasts; 24 h in darkness; YFP fluorescence by confocal microscopy

| binding [1] | binding [2] | Binder |
| --- | --- | --- |
| binds | – | NAC072-C (168-297aa), yeast two-hybrid fusion (domain or fragment, UniProt Q93VY3 168-297) RQAVTPVQACREEHSTNGSSSSSSSQLDDVLDSFPEIKDQSFNLPRMNSLRTILNGNFDWASLAGLNPIPELAPTNGLPSYGGYDAFRAAEGEAESGHVNRQQNSSGLTQSFGYSSSGFGVSGQTFEFRQ |
| binds | – | NAC072-N (1-167aa), yeast two-hybrid fusion (domain or fragment, UniProt Q93VY3 1-167) MGVREKDPLAQLSLPPGFRFYPTDEELLVQYLCRKVAGYHFSLQVIGDIDLYKFDPWDLPSKALFGEKEWYFFSPRDRKYPNGSRPNRVAGSGYWKATGTDKIITADGRRVGIKKALVFYAGKAPKGTKTNWIMHEYRLIEHSRSHGSSKLDDWVLCRIYKKTSGSQ |
| binds | – | NAC072 full length (NAC072-F), yeast two-hybrid fusion (protein, UniProt Q93VY3 1-297) MGVREKDPLAQLSLPPGFRFYPTDEELLVQYLCRKVAGYHFSLQVIGDIDLYKFDPWDLPSKALFGEKEWYFFSPRDRKYPNGSRPNRVAGSGYWKATGTDKIITADGRRVGIKKALVFYAGKAPKGTKTNWIMHEYRLIEHSRSHGSSKLDDWVLCRIYKKTSGSQRQAVTPVQACREEHSTNGSSSSSSSQLDDVLDSFPEIKDQSFNLPRMNSLRTILNGNFDWASLAGLNPIPELAPTNGLPSYGGYDAFRAAEGEAESGHVNRQQNSSGLTQSFGYSSSGFGVSGQTFEFRQ |
| – | binds | NAC072-EYFP^N (BiFC fusion) (protein, UniProt Q93VY3 1-297) MGVREKDPLAQLSLPPGFRFYPTDEELLVQYLCRKVAGYHFSLQVIGDIDLYKFDPWDLPSKALFGEKEWYFFSPRDRKYPNGSRPNRVAGSGYWKATGTDKIITADGRRVGIKKALVFYAGKAPKGTKTNWIMHEYRLIEHSRSHGSSKLDDWVLCRIYKKTSGSQRQAVTPVQACREEHSTNGSSSSSSSQLDDVLDSFPEIKDQSFNLPRMNSLRTILNGNFDWASLAGLNPIPELAPTNGLPSYGGYDAFRAAEGEAESGHVNRQQNSSGLTQSFGYSSSGFGVSGQTFEFRQ |
